Data reported in the supplement of paper PMC12067093, “Discovery and optimisation of a covalent ligand for TRIM25 and its application to targeted protein ubiquitination” (Chemical Science, 2025).
This is one part of the list.

Amino acid sequences for entries named in this document (tags omitted). A change or cut given only in a name is not applied to a line headed by its entry.
UniProt Q8WTW3: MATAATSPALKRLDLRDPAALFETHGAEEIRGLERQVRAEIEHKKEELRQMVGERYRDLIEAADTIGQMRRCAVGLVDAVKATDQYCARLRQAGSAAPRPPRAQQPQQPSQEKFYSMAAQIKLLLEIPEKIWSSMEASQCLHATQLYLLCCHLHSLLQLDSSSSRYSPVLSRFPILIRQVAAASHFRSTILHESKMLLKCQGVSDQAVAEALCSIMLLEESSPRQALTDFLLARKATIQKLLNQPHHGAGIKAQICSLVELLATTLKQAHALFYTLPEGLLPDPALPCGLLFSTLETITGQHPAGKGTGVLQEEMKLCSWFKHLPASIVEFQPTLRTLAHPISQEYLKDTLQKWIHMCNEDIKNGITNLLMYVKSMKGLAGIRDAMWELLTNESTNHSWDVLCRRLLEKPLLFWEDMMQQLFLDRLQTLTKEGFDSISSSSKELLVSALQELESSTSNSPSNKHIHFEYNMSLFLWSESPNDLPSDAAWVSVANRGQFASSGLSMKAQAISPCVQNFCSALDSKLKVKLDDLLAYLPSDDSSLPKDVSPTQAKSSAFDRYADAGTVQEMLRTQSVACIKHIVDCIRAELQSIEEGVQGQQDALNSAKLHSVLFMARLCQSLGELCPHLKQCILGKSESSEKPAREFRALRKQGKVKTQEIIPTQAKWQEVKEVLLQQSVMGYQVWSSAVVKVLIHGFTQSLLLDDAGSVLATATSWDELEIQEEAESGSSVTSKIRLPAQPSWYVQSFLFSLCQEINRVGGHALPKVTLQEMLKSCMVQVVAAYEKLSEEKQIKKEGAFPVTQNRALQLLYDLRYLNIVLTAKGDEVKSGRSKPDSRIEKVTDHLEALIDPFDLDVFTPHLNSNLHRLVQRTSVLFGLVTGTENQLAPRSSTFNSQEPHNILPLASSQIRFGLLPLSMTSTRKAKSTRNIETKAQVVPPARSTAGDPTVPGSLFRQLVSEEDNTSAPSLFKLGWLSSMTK
UniProt Q9UBF2: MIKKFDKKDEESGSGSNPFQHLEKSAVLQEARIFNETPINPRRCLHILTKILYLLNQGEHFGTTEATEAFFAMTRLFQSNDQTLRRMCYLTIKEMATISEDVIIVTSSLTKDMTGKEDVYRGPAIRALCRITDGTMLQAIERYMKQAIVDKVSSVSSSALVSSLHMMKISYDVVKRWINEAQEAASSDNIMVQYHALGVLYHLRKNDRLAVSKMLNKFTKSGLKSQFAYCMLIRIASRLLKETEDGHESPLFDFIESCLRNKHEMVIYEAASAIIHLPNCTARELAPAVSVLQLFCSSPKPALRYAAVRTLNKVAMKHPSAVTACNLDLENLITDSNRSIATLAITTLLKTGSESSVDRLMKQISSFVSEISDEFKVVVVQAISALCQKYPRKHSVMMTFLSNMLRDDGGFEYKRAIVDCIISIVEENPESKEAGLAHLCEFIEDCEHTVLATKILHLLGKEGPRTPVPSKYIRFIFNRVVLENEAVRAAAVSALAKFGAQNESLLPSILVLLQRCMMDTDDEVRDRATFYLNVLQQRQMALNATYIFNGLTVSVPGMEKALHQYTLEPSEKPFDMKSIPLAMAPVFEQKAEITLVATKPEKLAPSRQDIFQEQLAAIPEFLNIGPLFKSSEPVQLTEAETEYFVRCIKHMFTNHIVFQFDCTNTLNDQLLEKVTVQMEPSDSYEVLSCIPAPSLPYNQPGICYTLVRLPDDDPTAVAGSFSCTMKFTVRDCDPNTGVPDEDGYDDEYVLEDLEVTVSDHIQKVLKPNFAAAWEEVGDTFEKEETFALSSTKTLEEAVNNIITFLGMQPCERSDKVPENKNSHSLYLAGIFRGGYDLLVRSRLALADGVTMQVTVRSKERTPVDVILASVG

How the values were obtained:
COG1_Q8WTW3_584_HIVDCIR = COG1_Q8WTW3_584_HIVDCIR (UniProt Q8WTW3); experiment: probe-labelled cysteine peptide fold change vs DMSO (competition) (log2 fold change); higher = less target engagement (more negative = stronger competition); details: THP-1, incubation time: 4 h
[1] = molecular target: COPG2_Q9UBF2_662_HMFTNHIVFQFDCTNTLNDQLLEK (UniProt Q9UBF2); experiment: as above; details: THP-1, incubation time: 4 h
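Note: competitive chemoproteomic profiling in live THP-1 cells with an iodoacetamide desthiobiotin (IA-DTB) probe, comparing probe-labelled peptide intensities in compound-treated cells against DMSO-treated controls.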

`CC1Cc2ccccc2N1C(=O)C1CCCN(C(=O)CCl)C1` (mixture of isomers) [TRIM25 ligand 11 (diastereomer mixture)] was tested, and the “probe-labelled cysteine peptide fold change” value (COG1_Q8WTW3_584_HIVDCIR; 10 µM) was 0.0311, the “probe-labelled cysteine peptide fold change” value (COG1_Q8WTW3_584_HIVDCIR; 50 µM) was 0.232 and the “probe-labelled cysteine peptide fold change” value ([1]; 10 µM) was 0.00666. For the same compound, the “probe-labelled cysteine peptide fold change” value ([1]; 50 µM) was -0.0937.
